These results are taken from PubChem BioAssay AID248 (DTP/NCI, 2004).

The test relates to L1210 leukemia ip in BDF1 mice, survival T/C. Description: NCI In Vivo Anticancer Drug Screen. Data for tumor model L1210 Leukemia (intraperitoneal) in B6D2F1 (BDF1) mice. As to conditions: T/C endpoint: mean survival time, higher T/C = longer survival.
[1] abbreviates: dose: 300.0 mg/kg/injection, schedule: Q01DX001 (ip), vehicle: saline.
Setting [2] is: dose: 300.0 mg/kg/injection, schedule: Q01DX001 (ip), vehicle: carboxymethylcellulose (CMC).
Setting [3] is: dose: 400.0 mg/kg/injection, schedule: Q04DX003 (ip), vehicle: Klucel (hydroxypropylcellulose) (HPC).
Where [4] appears, read: dose: 50.0 mg/kg/injection, schedule: Q01DX009 (ip), vehicle: Klucel (hydroxypropylcellulose) (HPC).
Setting [5] is: dose: 400.0 mg/kg/injection, schedule: Q01DX009 (ip), vehicle: saline.
Setting [6] is: dose: 400.0 mg/kg/injection, schedule: Q01DX001 (ip), vehicle: saline.

The list is a part of this screen's results and no random one: it gathers tests that were run many times, whatever their T/C, doses with no T/C, and many T/C values between a quarter and a half above the control. Other doses and runs of a compound stand elsewhere. T/C is the treated group as % of the vehicle group. Some entries give survivors of the animals treated and no T/C: the source holds a T/C of zero for them, seemingly a mark for toxic or unscored doses. Some doses without a T/C left all or most animals alive at the check, yet need not have been tolerated: survival well below the control is almost never listed, so the zero probably covers shortened survival too. Survivors were counted at the toxicity check, usually on the fifth day, unless a day is given; later deaths do not show. Schedule codes are those of the source, taken here to give the interval after Q, in days (D) or hours (H), and the number of doses after X. Some schedule codes hold Z or #, which are not explained here. Where survival is the endpoint, this PubChem deposit counts one and a half times the control or more as active, and values a quarter to a half above the control carry no call in these data; other NCI protocols may use other cut-offs. Some entries were tested several times; the results are listed from low to high.

Consider `C[n+]1ccccc1/C=C/c1ccc2cccc(O)c2n1`, for which the survivor count was 0 of 6 (dose: 64.0 mg/kg/injection, schedule: Q01DX015 (ip), vehicle: saline); 0 of 6 (dose: 150.0 mg/kg/injection, schedule: Q01DX001 (ip), vehicle: saline); 0 of 6 under setting [1].

`CCOc1cccc(OC(C)=O)c1`: the survivor count under setting [2] is 3 of 6.

On to `C=C(C(=O)OC1CC2CCC(C1)N2C)c1ccccc1` (configuration not stated), for which the survivor count is on record as 2 of 6 (dose: 10.0 mg/kg/injection, schedule: Q01DX Z (ip), vehicle: saline); 3 of 6 (dose: 40.0 mg/kg/injection, schedule: Q01DX001 (ip), vehicle: carboxymethylcellulose (CMC)); 0 of 6 (dose: 80.0 mg/kg/injection, schedule: Q01DX001 (ip), vehicle: carboxymethylcellulose (CMC)); 0 of 4 (dose: 100.0 mg/kg/injection, schedule: Q01DX001 (ip), vehicle: carboxymethylcellulose (CMC)); 0 of 4 (dose: 200.0 mg/kg/injection, schedule: Q01DX001 (ip), vehicle: carboxymethylcellulose (CMC)); 0 of 4 (dose: 400.0 mg/kg/injection, schedule: Q01DX001 (ip), vehicle: carboxymethylcellulose (CMC)).

Consider `O=C1OC(=O)c2cccc3cccc1c23`, for which the survivor count by setting is: (dose: 100.0 mg/kg/injection, schedule: Q01DX001 (ip), vehicle: Klucel (hydroxypropylcellulose) (HPC)) 3 of 3; (dose: 200.0 mg/kg/injection, schedule: Q01DX001 (ip), vehicle: Klucel (hydroxypropylcellulose) (HPC)) 1 of 3.

In the case of `O=C(C[n+]1ccccc1)N/N=C/c1ccc([N+](=O)[O-])s1`, the survivor count runs as follows: (dose: 50.0 mg/kg/injection, schedule: Q01DX009 (ip), vehicle: water) 3 of 6; (dose: 100.0 mg/kg/injection, schedule: Q04DX003 (ip), vehicle: water) 3 of 6; (dose: 200.0 mg/kg/injection, schedule: Q04DX003 (ip), vehicle: water) 0 of 6; (dose: 400.0 mg/kg/injection, schedule: Q04DX003 (ip), vehicle: water) 0 of 6.

Take `COc1cc2c(cc1O)CCN(C)C2Cc1ccc(OC)c(OC)c1` (configuration not stated): under setting [2], the survivor count is on record as 1 of 6.

With `Cc1ccc(CCl)cc1`, the survivor count (dose: 400.0 mg/kg/injection, schedule: Q01DX009 (ip), vehicle: saline with Tween-80) is given as 0 of 6.

For `Cc1ccc(CN2C(=O)C=CC2=O)cc1`, the survivor count is given as 3 of 3 (dose: 50.0 mg/kg/injection, schedule: Q04DX002 (ip), vehicle: Klucel (hydroxypropylcellulose) (HPC)); 0 of 3 (dose: 100.0 mg/kg/injection, schedule: Q04DX002 (ip), vehicle: Klucel (hydroxypropylcellulose) (HPC)); 0 of 3 (dose: 200.0 mg/kg/injection, schedule: Q04DX002 (ip), vehicle: Klucel (hydroxypropylcellulose) (HPC)); 0 of 3 (dose: 400.0 mg/kg/injection, schedule: Q04DX002 (ip), vehicle: Klucel (hydroxypropylcellulose) (HPC)).

For `C=C(Cl)CNC(=O)c1ccc([N+](=O)[O-])cc1`, the survivor count under setting [3] is given as 1 of 6.

Consider `Cc1cccc(C)c1N=C=O`, for which, where the note is “dose: 400.0 mg/kg/injection, schedule: Q01DX009 (ip), vehicle: other”, the survivor count is listed as 0 of 6.

For `CCNc1ncnc2c1c(C(N)=S)cn2C1OC(CO)C(O)C1O` (configuration not stated), the T/C reads like this: (dose: 12.5 mg/kg/injection, schedule: Q01DX005 (ip), vehicle: saline) 127 % of control; (dose: 25.0 mg/kg/injection, schedule: Q01DX005 (ip), vehicle: saline) 142 % of control; (dose: 35.0 mg/kg/injection, schedule: Q01DX005 (ip), vehicle: saline) 125 % of control. In addition, the survivor count reads like this: (dose: 50.0 mg/kg/injection, schedule: Q01DX005 (ip), vehicle: saline) 6 of 6; under setting [4], 0 of 6; (dose: 100.0 mg/kg/injection, schedule: Q01DX005 (ip), vehicle: saline) 3 of 6; (dose: 200.0 mg/kg/injection, schedule: Q01DX005 (ip), vehicle: saline) 3 of 6.

On to `NNc1n[nH]c(=S)n1N`, for which, where the note is “dose: 50.0 mg/kg/injection, schedule: Q04DX003 (ip), vehicle: saline”, the survivor count is given as 6 of 6.

`NN=C(c1ccccc1)c1ccccc1`: the survivor count (dose: 20.93 mg/kg/injection, schedule: Q01DX009 (ip), vehicle: Klucel (hydroxypropylcellulose) (HPC)) was 6 of 6 and the survivor count (dose: 335.0 mg/kg/injection, schedule: Q01DX009 (ip), vehicle: Klucel (hydroxypropylcellulose) (HPC)) was 0 of 6.

`BrCCCc1ccccc1`: the survivor count under setting [1] is given as 3 of 6.

With `COc1ccc(C=[N+](C)CCc2ccc(OC)c(OC)c2)cc1OC`, the survivor count under setting [5] is on record as 0 of 6. Besides, the T/C (dose: 400.0 mg/kg/injection, schedule: Q04DX003 (ip), vehicle: saline) is 134 % of control.

As to `N=[N+]=CC(=O)CC(N)C(=O)O` (configuration not stated), the survivor count runs as follows: (dose: 32.0 mg/kg/injection, schedule: Q03HX024 (ip), vehicle: saline) 10 of 10; (dose: 64.0 mg/kg/injection, schedule: Q03HX024 (ip), vehicle: saline) 10 of 10; (dose: 2048.0 mg/kg/injection, schedule: Q04DX003 (ip), vehicle: saline) 6 of 10. The T/C by setting is: (dose: 256.0 mg/kg/injection, schedule: Q03HX024 (ip), vehicle: saline) 148 % of control; under setting [5], 129 and 136 % of control; (dose: 600.0 mg/kg/injection, schedule: Q01DX009 (ip), vehicle: saline) 148 % of control.

On to `CC1=C2[C@H]3OC(=O)[C@H](C)[C@@H]3CC[C@@]2(C)C=CC1=O`, for which the survivor count (dose: 400.0 mg/kg/injection, schedule: Q01DX001 (ip), vehicle: other) was 2 of 6.

With `CN(C)C12CCCCC1S(=O)(=O)C2` (configuration not stated), the survivor count (dose: 40.0 mg/kg/injection, schedule: Q01DX009 (ip), vehicle: saline) is 0 of 6; the survivor count (dose: 75.0 mg/kg/injection, schedule: Q01DX009 (ip), vehicle: saline) was 0 of 6; the survivor count (dose: 150.0 mg/kg/injection, schedule: Q01DX009 (ip), vehicle: saline) is listed as 0 of 6; the survivor count (dose: 300.0 mg/kg/injection, schedule: Q01DX009 (ip), vehicle: saline) is 0 of 6.

As to `Nc1ncnc(N)c1[N+](=O)[O-]`, the survivor count (dose: 250.0 mg/kg/injection, schedule: Q01DX Z (ip), vehicle: methylcellulose (MC)) was 3 of 6 and the survivor count (dose: 500.0 mg/kg/injection, schedule: Q01DX Z (ip), vehicle: methylcellulose (MC)) is recorded as 0 of 6.

In the case of `O=C(O)C(Cc1cc(I)c(O)c(I)c1)c1ccccc1` (configuration not stated), the survivor count under setting [3] is recorded as 1 of 6.

For the molecule `CN1CCN(C2CCCc3ccccc3C2O)CC1` (configuration not stated), the survivor count reads like this: (dose: 80.0 mg/kg/injection, schedule: Q01DX001 (ip), vehicle: saline) 1 of 4; (dose: 100.0 mg/kg/injection, schedule: Q01DX001 (ip), vehicle: saline) 2 of 4; (dose: 200.0 mg/kg/injection, schedule: Q01DX001 (ip), vehicle: saline) 0 of 4; under setting [6], 0 of 4.

Turning to `O=C(CN1C(=O)C(=O)O/C1=C/c1ccccc1)OCc1ccccc1`, the survivor count (dose: 400.0 mg/kg/injection, schedule: Q01DX009 (ip), vehicle: Klucel (hydroxypropylcellulose) (HPC)) is on record as 0 of 6.

In the case of `Cc1cccc(C)c1N=C(N)NN`, the survivor count runs as follows: (dose: 200.0 mg/kg/injection, schedule: Q04DX003 (ip), vehicle: saline) 1 of 6; under setting [6], 0 of 6.

Turning to `COc1ccc(/C(C#N)=C/c2ccc(N(C)CCC#N)cc2)cc1`, under setting [4], the survivor count is reported as 0 of 6.

On to `COC(=O)COc1cc(Cl)c(Cl)cc1Cl`, for which the survivor count (dose: 400.0 mg/kg/injection, schedule: Q04DX002 (ip), vehicle: saline with Tween-80) is 0 of 3.

For `NC(=S)N/N=C/c1ccc(OC(=O)COc2ccccc2Cl)cn1`, where the note is “dose: 200.0 mg/kg/injection, schedule: Q04DX003 (ip), vehicle: saline with Tween-80”, the T/C is 135 % of control. For the setting “dose: 600.0 mg/kg/injection, schedule: Q04DX003 (ip), vehicle: saline with Tween-80”, the survivor count is recorded as 6 of 6.
